Data set [1] deals with T1, Nab2-6xHis (Saccharomyces cerevisiae) (UniProt P32505).
T1 sequence (looked up): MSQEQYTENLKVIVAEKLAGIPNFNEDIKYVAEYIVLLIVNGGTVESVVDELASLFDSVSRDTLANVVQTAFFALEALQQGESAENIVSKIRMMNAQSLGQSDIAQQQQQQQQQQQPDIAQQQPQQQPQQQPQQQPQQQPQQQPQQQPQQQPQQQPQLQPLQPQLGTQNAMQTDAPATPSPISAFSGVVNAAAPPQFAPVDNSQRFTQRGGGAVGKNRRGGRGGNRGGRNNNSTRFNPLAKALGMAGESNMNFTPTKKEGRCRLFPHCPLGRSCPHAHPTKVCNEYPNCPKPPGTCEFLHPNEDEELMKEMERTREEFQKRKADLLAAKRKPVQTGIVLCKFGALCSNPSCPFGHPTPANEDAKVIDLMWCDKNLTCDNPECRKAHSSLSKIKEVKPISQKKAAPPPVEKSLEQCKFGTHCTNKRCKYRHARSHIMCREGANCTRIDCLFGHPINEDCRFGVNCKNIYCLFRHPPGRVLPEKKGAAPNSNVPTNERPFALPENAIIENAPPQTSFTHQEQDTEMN
Put plainly: SEC-MALS. The settings on record: 135 kDa complex, 2:1 Nab2:RNA; phosphate; switchSENSE: 12.5 mM HEPES-KOH pH 8.0, 75 mM KOAc, 1 mM Mg(OAc)2, 0.025 mM EDTA, 25 C; recombinant protein; residues 1-525; protein details: C-terminal 6xHis. Background: Size exclusion chromatography separates by hydrodynamic size, large species first.

Data set [2] has as its target T2, SII-Nab2 (Saccharomyces cerevisiae) (UniProt P32505).
T2 sequence (looked up): T1 sequence (looked up)
Put plainly: switchSENSE. The settings on record: kon 7-fold slower than rA60, Kd only in Fig 2E table; switchSENSE: 12.5 mM HEPES-KOH pH 8.0, 75 mM KOAc, 1 mM Mg(OAc)2, 0.025 mM EDTA, 25 C; recombinant …; residues 1-525; protein details: N-terminal SII; label: green dye on NL-A48, chip-tethered.

For some assays here: Weaker means in comparison with the reference protein, sequence or condition of that experiment. Where a protein sequence is shown, tags need not be part of it. For some assays here: For at least one entry, the source does not settle the construct or the ends of the probe.

On to “AAAAAAAAAAAAAAAAAAAAAAAAAAAAAAAAAAAAAAAAAAAAAAAAAAAAAAAAAAA [A59 (R006)]”, for which, in data set [1], the binding result is given as “binds”.
Consider “TAGTGCTGTAGGAGAATATACGGGCTGCTCGTGTTGACAAGTACTGAT / ACAGATGACTGCTCGTCAATATCAGTACTTGTCAACACGAGCAGCCCGTATATTCTCCTACAGCACTA / ATTGACGAGCAGTCATCTGT [DNA nanolever only]”, for which the binding result in data set [2] was “binds more weakly”.

For the origin of these results see PMC12581835.
